For at least one entry, the source does not settle the construct or the ends of the probe. Negatives hold for the conditions tested.

Amino acid sequences for entries named in this document (tags omitted). A change or cut given only in a name is not applied to a line headed by its entry.
UniProt Q61060: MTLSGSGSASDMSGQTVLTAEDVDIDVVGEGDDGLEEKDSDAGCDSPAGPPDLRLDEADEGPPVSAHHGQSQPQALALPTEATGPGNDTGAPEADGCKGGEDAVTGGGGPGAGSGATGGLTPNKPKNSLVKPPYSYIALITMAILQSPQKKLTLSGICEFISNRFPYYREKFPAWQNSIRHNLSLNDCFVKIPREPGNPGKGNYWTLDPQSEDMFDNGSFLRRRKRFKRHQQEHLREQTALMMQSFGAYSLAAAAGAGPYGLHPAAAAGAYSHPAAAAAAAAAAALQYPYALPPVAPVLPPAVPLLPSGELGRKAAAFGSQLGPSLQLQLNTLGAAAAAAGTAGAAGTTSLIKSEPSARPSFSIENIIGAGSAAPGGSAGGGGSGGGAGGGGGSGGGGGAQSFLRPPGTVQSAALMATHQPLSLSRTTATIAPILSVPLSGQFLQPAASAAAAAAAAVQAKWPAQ

The target in series [1] is GST-FOXD3 M1 YSY>RAD (Mus musculus) (UniProt Q61060). The series is described as follows: EMSA. As to conditions: 0-5 uM protein, 50 nM DNA, residues 1-465. For orientation: A gel shift assay detects complexes by their altered migration in electrophoresis.
The target of series [2] is GST-FOXD3 M2 FVK>VAM (Mus musculus) (UniProt Q61060). The series can be described thus: EMSA. Particulars: 0-5 uM protein, 50 nM DNA, residues 1-465.

As to “CTGAAAATCATGGAAAATGAGAAACATCCACTTGA (double strand) [MSR]”, the binding result in series [1] and in series [2] was “no binding” in each case.

These data come from publication doi:10.1101/2021.05.01.442081.
